Article PMC7819943, “Rice protein-binding microarrays: a tool to detect cis-acting elements near promoter regions in rice”
Some of the results follow.

The sequences below were run against T1, OsSMF1 (Oryza sativa, UniProt Q6ZLB0 1-436) (assay: protein-binding microarray (RPBM); PBS, 2% BSA, 51.3 ng/ul salmon testes DNA, 50 uM zinc acetate, 200 nM TF, 25 C, 1 h; high values mean tight binding). Conditions: protein: recombinant; tags: N-terminal polyhistidine and DsRed monomer fusion (pET32a); chain copies: 2; label: CyDye5-dUTP incorporated in the synthesized complementary strand; 3' TTTTT single-stranded linker to array surface; dsDNA, one strand shown.
T1 sequence: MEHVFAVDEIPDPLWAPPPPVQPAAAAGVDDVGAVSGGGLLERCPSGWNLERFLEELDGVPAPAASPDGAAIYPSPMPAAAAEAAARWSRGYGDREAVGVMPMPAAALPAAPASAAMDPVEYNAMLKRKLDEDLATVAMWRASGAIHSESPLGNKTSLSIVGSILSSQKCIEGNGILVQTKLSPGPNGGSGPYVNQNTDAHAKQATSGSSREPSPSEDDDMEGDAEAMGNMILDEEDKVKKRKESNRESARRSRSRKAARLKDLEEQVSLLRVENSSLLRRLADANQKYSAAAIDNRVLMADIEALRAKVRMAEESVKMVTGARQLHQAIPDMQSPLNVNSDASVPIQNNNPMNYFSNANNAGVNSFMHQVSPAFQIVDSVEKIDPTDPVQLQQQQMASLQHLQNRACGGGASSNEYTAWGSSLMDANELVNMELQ
Summary of the method: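 A custom Agilent array was converted to double-stranded form by primer extension with Cy5-dUTP and blocked with 2% BSA. Protein at 200 nM in PBS with 2% BSA, salmon testes DNA and 50 µM zinc acetate was applied for 1 h at 25 °C, followed by washing. The proteins were polyhistidine–DsRed N-terminal fusions of transcription factors, expressed in E. coli BL21-CodonPlus and Ni–NTA-purified. The binding signal is per-feature fluorescence intensity (arbitrary units) from an Axon 4000B scanner.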

Sequence	binding signal
TCGTCACCCCTAACCCTAGGCTGAGTCATCCTCTTATCCGCGGAGTCACCTAGTGCAG	20300 fluorescence intensity (a.u.)
CGAACGGACAACGGCGCGGCTGACGCGGGTACAGGCGGTGCGGAGTCACCTAGTGCAG	4880 fluorescence intensity (a.u.)
AGCGTGTCTTCGGAGAGGGTTATGTCAGCACTGGTGGAATCGGAGTCACCTAGTGCAG	6110 fluorescence intensity (a.u.)
CTCGTCATCGCTACCCCTGGGCTCGTGGCCAGCGGCAATTCGGAGTCACCTAGTGCAG	3210 fluorescence intensity (a.u.)
GATTGACATTGAAGTGGTTGACTAAGCTAAGGTTTACCACCGGAGTCACCTAGTGCAG	3440 fluorescence intensity (a.u.)
GCTTCCACGTCTCCCTCCTTATCTGTGACCCACTCCGTCGCGGAGTCACCTAGTGCAG	5200 fluorescence intensity (a.u.)
TATTCTAGTAATGATGTTGACATGTCAGTTCCATGTCCCACGGAGTCACCTAGTGCAG	4410 fluorescence intensity (a.u.)
AATAATCTTTACACGCGTGGCATATAGCATGTTCTTGCAACGGAGTCACCTAGTGCAG	5330 fluorescence intensity (a.u.)
ATTTGGAGCGGTTTTGGATCCACGTGGCAGTCCAATCAGCCGGAGTCACCTAGTGCAG	12500 fluorescence intensity (a.u.)
GGTTCCATGCCTCGCCGTTTATCTATCTAATTTACTAGCACGGAGTCACCTAGTGCAG	3170 fluorescence intensity (a.u.)
TGTGTCACCGTCAGACCCGCCGTCCCTGACGTTGCACCTTCGGAGTCACCTAGTGCAG	7680 fluorescence intensity (a.u.)
ACCGTGCTCCGGCGCGGGCACCGCGTGGCATAGGCGCATGCGGAGTCACCTAGTGCAG	4780 fluorescence intensity (a.u.)
GCCATAGGCCTTACTCGCTGACTCAGCTGCATGGACCAAGCGGAGTCACCTAGTGCAG	11400 fluorescence intensity (a.u.)
TTTGCTTTTGTGATTTCCTTGTGAGATTACAGAAGCGGCGCGGAGTCACCTAGTGCAG	4880 fluorescence intensity (a.u.)
GTGGGTGGTGGCGGCGGCGGCGGCGGCGAGGGTTTCTGGGCGGAGTCACCTAGTGCAG	26000 fluorescence intensity (a.u.)
CTGTTACTACGATTCTGGACAGCAAATAATGTCACATCCTCGGAGTCACCTAGTGCAG	3320 fluorescence intensity (a.u.)
GCAGGGTTGTGATGCTAGTTTGGTGAGTGCTCAATTTATGCGGAGTCACCTAGTGCAG	3400 fluorescence intensity (a.u.)
AGATGGTGTGGACGTTGCCTCGTCACCCTCCCGCTCTGCACGGAGTCACCTAGTGCAG	11000 fluorescence intensity (a.u.)
ACGGACCAAAGTGCCTCGTCAGAGATAACCTCATCTGTGACGGAGTCACCTAGTGCAG	5810 fluorescence intensity (a.u.)
GTAGCAAAGTTACGAGCGTGCAGTTACATCCTATCCGCTGCGGAGTCACCTAGTGCAG	4150 fluorescence intensity (a.u.)
TAGAATCTATATATTTAATGTCACGTAGCGTAAGGGTTTTCGGAGTCACCTAGTGCAG	3240 fluorescence intensity (a.u.)

Rewritten as comma-separated lines: entries from further up
Sequence,binding signal
TTTGCTTTTGTGATTTCCTTGTGAGATTACAGAAGCGGCGCGGAGTCACCTAGTGCAG,4880 fluorescence intensity (a.u.)
GTGGGTGGTGGCGGCGGCGGCGGCGGCGAGGGTTTCTGGGCGGAGTCACCTAGTGCAG,26000 fluorescence intensity (a.u.)

Going on with the list:

Sequence	binding signal
TCACGAATACGATGATTACGTAGCAAGTCGAGTACCAGAGCGGAGTCACCTAGTGCAG	3160 fluorescence intensity (a.u.)
ATTTTCTTACTCCTAAAACAAATGACACGTCACGCGTCACCGGAGTCACCTAGTGCAG	29100 fluorescence intensity (a.u.)
GACACAAACTGACGTCGCCTTCATCGTCCTCCTCCTCCGCCGGAGTCACCTAGTGCAG	3570 fluorescence intensity (a.u.)
CTTGCCCAGCCACTGGTGGGCCCACCGGCCACCTCATTTCCGGAGTCACCTAGTGCAG	3390 fluorescence intensity (a.u.)
GCGCCACCTATAAAACGCCCGCGCGCCCCGCGCCGCCTCCCGGAGTCACCTAGTGCAG	40300 fluorescence intensity (a.u.)
CAAGTAATTAATCAACACATCAGCAGGCTAGCTCCTGTAACGGAGTCACCTAGTGCAG	3680 fluorescence intensity (a.u.)
AAATCCACATTCTCTGGTCCCACACCTGTCACCGTCCCATCGGAGTCACCTAGTGCAG	4080 fluorescence intensity (a.u.)
GCATCCGCATCCGCATCCGGGCCAGCGACGCCGGCGGAAGCGGAGTCACCTAGTGCAG	29300 fluorescence intensity (a.u.)
ATGTTTATTACTCTTAGTATCTCTTGTAGTTAAGTTATAGCGGAGTCACCTAGTGCAG	3180 fluorescence intensity (a.u.)
TTGTGTTTGTGTGTGTGTTTGTGCTGATTTGGGCATTGGTCGGAGTCACCTAGTGCAG	3400 fluorescence intensity (a.u.)
TGGCATGGCCTCTCGCCGCGGCGCTTGACTCATCACGATTCGGAGTCACCTAGTGCAG	7300 fluorescence intensity (a.u.)
TATTGTAACTCCACGTAGTGTTACAACCACAGTGACAGCTCGGAGTCACCTAGTGCAG	4030 fluorescence intensity (a.u.)
ACGTTCCATCCACCACTGCCCTTTTGGGCAGCACGAACAACGGAGTCACCTAGTGCAG	3870 fluorescence intensity (a.u.)
GACGTTTAGGGTGAAAGAAATGATGTGGATTTCTTTTACTCGGAGTCACCTAGTGCAG	5840 fluorescence intensity (a.u.)
GATGCGCGTGAGGAGGCAGTGAGGTGGATGGTGGAGGCGGCGGAGTCACCTAGTGCAG	4160 fluorescence intensity (a.u.)
GGCCCATGCGACGCCACGCCAGGTCCCGCTCATCTCTTCACGGAGTCACCTAGTGCAG	4310 fluorescence intensity (a.u.)
AGAAATGTCATCGTACAAGTGCTTTTGTTCTAGAGTTACCCGGAGTCACCTAGTGCAG	3790 fluorescence intensity (a.u.)
CCTGTATACTACGCGTAGGCAATCATGCCGCGCCTGTACACGGAGTCACCTAGTGCAG	3430 fluorescence intensity (a.u.)
ACCCCTCGACAGCGAGGCGTTGCGTGTCCCATCTCACCCTCGGAGTCACCTAGTGCAG	5260 fluorescence intensity (a.u.)
CTACATAAGGTGCCGAGGCAGTGACACCACCACCCCACCCCGGAGTCACCTAGTGCAG	3340 fluorescence intensity (a.u.)
AAACGTTTCAAAGATATCATGCCAGGTCAGACACCCGAATCGGAGTCACCTAGTGCAG	10600 fluorescence intensity (a.u.)

Looked up one by one from the list above:
Sequence	binding signal
AAATCCACATTCTCTGGTCCCACACCTGTCACCGTCCCATCGGAGTCACCTAGTGCAG	4080 fluorescence intensity (a.u.)
CCTGTATACTACGCGTAGGCAATCATGCCGCGCCTGTACACGGAGTCACCTAGTGCAG	3430 fluorescence intensity (a.u.)
AAACGTTTCAAAGATATCATGCCAGGTCAGACACCCGAATCGGAGTCACCTAGTGCAG	10600 fluorescence intensity (a.u.)

(listing goes on)

Sequence	binding signal
CGCCCGTTGTATTGCAGCCGTGGACTGGACACGCTGGAGGCGGAGTCACCTAGTGCAG	3440 fluorescence intensity (a.u.)
TTAAATGTTAAGCCTAATTACGTCATGGTTTGACAACGTTCGGAGTCACCTAGTGCAG	4460 fluorescence intensity (a.u.)
TACGTTGAATATTACCCTCTTGATGACTTGACTAATTTTACGGAGTCACCTAGTGCAG	3880 fluorescence intensity (a.u.)
TCTCTCTCTCTCTCTCTCTCTCTCTCTCTCTCTCTCCGGCCGGAGTCACCTAGTGCAG	5410 fluorescence intensity (a.u.)
CACTGGATTTTCCATGTCACCTATTTTAATCTTAGGAGCACGGAGTCACCTAGTGCAG	4680 fluorescence intensity (a.u.)
CTGTGATGAGTTTGCTGTGTTGTCATCTTCTGTTAGTGGACGGAGTCACCTAGTGCAG	5360 fluorescence intensity (a.u.)
GTACAATTAAACAGCCGTCGTGTCGGCACAGGTAGCTCGCCGGAGTCACCTAGTGCAG	4430 fluorescence intensity (a.u.)
TAAGTCAACCTAGTCGTGGTGAGCACGTGGTATTGTTTTCCGGAGTCACCTAGTGCAG	4220 fluorescence intensity (a.u.)
GTCGACCCACCGTCTGCCACGTCAGCTTGCCGCCCACCATCGGAGTCACCTAGTGCAG	35900 fluorescence intensity (a.u.)
TATCAGATTGCAACAACGGATCACATATGCACATCCCCTTCGGAGTCACCTAGTGCAG	25300 fluorescence intensity (a.u.)
CGTACTCATCTCCTACACATCATCTCCAATTAATCTAATTCGGAGTCACCTAGTGCAG	3180 fluorescence intensity (a.u.)
GGCGGAAATATACTATAGTATGACCTGGTATGTTTATTTTCGGAGTCACCTAGTGCAG	3520 fluorescence intensity (a.u.)
ATGGGCCGAAAGCCCAGCTCCACTGGGCCGCACGGCCGGCCGGAGTCACCTAGTGCAG	18000 fluorescence intensity (a.u.)
AAAATTGTGATGGCCCAGCGAGGCAGAGCAACCTGTTGTGCGGAGTCACCTAGTGCAG	4000 fluorescence intensity (a.u.)
CACCGGCCGGCCTGCAGCCGCAGCGCTGCCACGTGGCCGGCGGAGTCACCTAGTGCAG	25400 fluorescence intensity (a.u.)
AACAAGTCCTTAGGTTACAGTTTGATGACAAACCCTAATTCGGAGTCACCTAGTGCAG	3800 fluorescence intensity (a.u.)
GACCGAAATACGCACGCATTACACGGATGCAACCCAAACCCGGAGTCACCTAGTGCAG	3200 fluorescence intensity (a.u.)
GCCATCCCCAACACTCGTTGCTGCAGCTACCAACCTCCTCCGGAGTCACCTAGTGCAG	3510 fluorescence intensity (a.u.)
GTGATGATTTTGTCATAGCTCATCAGTGTAGTATATGCCTCGGAGTCACCTAGTGCAG	3700 fluorescence intensity (a.u.)
CCATGTTCTTATTACGTGGACACGTTGAGTCTGTGAAACTCGGAGTCACCTAGTGCAG	5480 fluorescence intensity (a.u.)
GTACACCAGTAGCTTCAACCCAGATCATCTGGTCCCTCTGCGGAGTCACCTAGTGCAG	3360 fluorescence intensity (a.u.)

Sequence	binding signal
TTCCCTCTCATCAGGATGGCGAGCTGAGCTGAGCTGAGCTCGGAGTCACCTAGTGCAG	26100 fluorescence intensity (a.u.)
AGTGTAGGTCGTCATGACAGGATCCTCTGCCCCTTTTACTCGGAGTCACCTAGTGCAG	3430 fluorescence intensity (a.u.)
CAACAACAGTGACCCTCGAAACTACTACTCTGATCTCAGTCGGAGTCACCTAGTGCAG	27400 fluorescence intensity (a.u.)
CTGACTGACTGGACCAGGTCACCCGCGAGGCCGCGACGTGCGGAGTCACCTAGTGCAG	4230 fluorescence intensity (a.u.)
AATAATGAATAGCGACTTTTCCGACCTGTTTTGGCGCATGCGGAGTCACCTAGTGCAG	3490 fluorescence intensity (a.u.)
ATACCGTGATTGGGATTACCTGTGACCTTGCCTATTTGACCGGAGTCACCTAGTGCAG	3220 fluorescence intensity (a.u.)
AGTACTACGCATCACATCCCATGATCCCGAGAGGCTCATGCGGAGTCACCTAGTGCAG	3200 fluorescence intensity (a.u.)
TATCCAAACAAAGTCCATGTTGGATGGATCCAGATCGCCACGGAGTCACCTAGTGCAG	13800 fluorescence intensity (a.u.)
TATTACAAGTGACTTTGCCAGGTCATGGATAAGGTCATGCCGGAGTCACCTAGTGCAG	10600 fluorescence intensity (a.u.)
TAGTTAAATATCGCTTGACACTTTTACTATTCGACACATACGGAGTCACCTAGTGCAG	3320 fluorescence intensity (a.u.)
AACATCGTACATAAGTGAGTAAGTGACTGACCACCACCCACGGAGTCACCTAGTGCAG	4900 fluorescence intensity (a.u.)
AAGTCGGGGTGAGTGAGTCCATGGCCCATGGACCGGTGCCCGGAGTCACCTAGTGCAG	31600 fluorescence intensity (a.u.)
AATATTGTGTGTTGTTGTGTTGTCATCTGATATATTTTAGCGGAGTCACCTAGTGCAG	6470 fluorescence intensity (a.u.)
CCGCGCCGTCCCTCCTGACGCGGCGTCTCGCCGCCGCCGCCGGAGTCACCTAGTGCAG	3780 fluorescence intensity (a.u.)
CGTAGTGAAGGGCTGATGTGGCATTTGACATGTCATCCATCGGAGTCACCTAGTGCAG	25300 fluorescence intensity (a.u.)
GCTCATCTGAGCCAGATGTTCGATCGGCGCCAAGCAGGGGCGGAGTCACCTAGTGCAG	3570 fluorescence intensity (a.u.)
GGAGAGGGAGCGGGAGAGGGAGGATTGGAGGATGTGGGGACGGAGTCACCTAGTGCAG	15400 fluorescence intensity (a.u.)
TCTAATCCTTACGAGTTTCACTGGGAGTGTTTGTTTCTCGCGGAGTCACCTAGTGCAG	33700 fluorescence intensity (a.u.)
CTCCCAATCCACGCGTCCCCTTTTCCCGTCCCTTCCCTTCCGGAGTCACCTAGTGCAG	4010 fluorescence intensity (a.u.)
TAGAGATTTTGTCAGAATTTAATTAAATTATGTGAAATTTCGGAGTCACCTAGTGCAG	19900 fluorescence intensity (a.u.)
TCCTAGTCCTAAGCATGATGTATCATGTAATGTTGAATTGCGGAGTCACCTAGTGCAG	3440 fluorescence intensity (a.u.)
